Binding data for two substances are collected here from publication PMC2289879.

Sequences of proteins named here, by UniProt entry; tags and fusion partners are left off. A change or cut given only in a name is not applied to a line headed by its entry.
UniProt Q96EB6: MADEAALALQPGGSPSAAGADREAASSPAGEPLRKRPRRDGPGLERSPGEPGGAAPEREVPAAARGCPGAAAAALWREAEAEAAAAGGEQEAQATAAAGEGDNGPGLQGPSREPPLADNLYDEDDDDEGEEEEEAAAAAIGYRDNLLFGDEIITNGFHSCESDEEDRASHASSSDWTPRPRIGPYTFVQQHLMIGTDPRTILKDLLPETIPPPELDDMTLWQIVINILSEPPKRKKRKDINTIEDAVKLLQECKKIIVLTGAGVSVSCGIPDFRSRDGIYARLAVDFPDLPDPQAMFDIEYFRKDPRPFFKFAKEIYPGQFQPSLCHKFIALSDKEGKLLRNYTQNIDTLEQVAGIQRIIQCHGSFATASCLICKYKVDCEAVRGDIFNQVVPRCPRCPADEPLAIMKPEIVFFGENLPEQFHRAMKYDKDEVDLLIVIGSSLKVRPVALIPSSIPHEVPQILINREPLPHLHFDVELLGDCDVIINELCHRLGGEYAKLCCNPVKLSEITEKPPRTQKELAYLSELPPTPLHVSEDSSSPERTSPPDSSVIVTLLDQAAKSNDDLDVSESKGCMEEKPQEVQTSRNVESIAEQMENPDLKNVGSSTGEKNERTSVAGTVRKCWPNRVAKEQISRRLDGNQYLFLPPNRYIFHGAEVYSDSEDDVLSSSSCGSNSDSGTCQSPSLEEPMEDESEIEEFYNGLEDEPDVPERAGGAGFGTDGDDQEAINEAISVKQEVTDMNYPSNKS
UniProt P35222: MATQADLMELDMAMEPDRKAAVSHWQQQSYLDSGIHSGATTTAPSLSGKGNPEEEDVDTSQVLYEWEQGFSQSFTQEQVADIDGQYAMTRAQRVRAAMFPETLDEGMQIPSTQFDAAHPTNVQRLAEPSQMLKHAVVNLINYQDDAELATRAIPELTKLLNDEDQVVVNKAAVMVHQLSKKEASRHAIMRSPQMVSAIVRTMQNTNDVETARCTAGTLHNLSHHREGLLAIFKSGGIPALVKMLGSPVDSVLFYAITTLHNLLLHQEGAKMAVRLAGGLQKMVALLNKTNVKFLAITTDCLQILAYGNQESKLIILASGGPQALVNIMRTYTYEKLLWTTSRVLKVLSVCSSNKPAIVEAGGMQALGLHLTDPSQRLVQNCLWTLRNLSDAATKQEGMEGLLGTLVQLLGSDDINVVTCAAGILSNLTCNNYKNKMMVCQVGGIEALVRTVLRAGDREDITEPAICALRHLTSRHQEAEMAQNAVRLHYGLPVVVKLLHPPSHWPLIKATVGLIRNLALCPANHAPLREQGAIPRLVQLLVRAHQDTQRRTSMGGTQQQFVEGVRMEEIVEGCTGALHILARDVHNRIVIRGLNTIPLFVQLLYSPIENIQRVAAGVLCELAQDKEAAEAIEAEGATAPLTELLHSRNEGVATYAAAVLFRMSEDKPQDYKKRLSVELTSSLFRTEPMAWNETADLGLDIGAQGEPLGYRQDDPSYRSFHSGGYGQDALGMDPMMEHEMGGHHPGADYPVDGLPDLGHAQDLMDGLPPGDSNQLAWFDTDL

These are yes or no findings as the source states them, for the method shown. In cells and extracts the contact can be indirect. Some binding calls cover weakened binding; strength is not graded here.

In experiment [1] the target is endogenous SIRT1 (human (endogenous in LN-CAP)) (UniProt Q96EB6). As to the kind of experiment: co-IP; endogenous proteins in LN-CAP cell extracts; IP with anti-SIRT1 antibody or normal rabbit IgG as control, blot anti-β-catenin; NP-40 extraction buffer (50 mM Tris-HCl pH 8.0, 150 mM NaCl, 1% NP-40).
A further experiment concerns the target FLAG-tagged SIRT1 (UniProt Q96EB6). As to the kind of experiment: co-IP; 293T cells co-transfected with HA-S33Y-β-catenin and FLAG-SIRT1 or vector control; IP with anti-FLAG (blot anti-HA) or with anti-HA (blot anti-FLAG); NP-40 extraction buffer (50 mM Tris-HCl pH 8.0, 150 mM NaCl, 1% NP-40) with 10 mM nicotinamide and 5 µM TSA; IP 2 hr, 4 washes.

For the substance “endogenous β-catenin (from UniProt P35222 1-781)”, the binding result in experiment [1] was “binds”.
On to “HA-S33Y-β-catenin (from UniProt P35222 1-781)”, for which the binding entry with FLAG-tagged SIRT1 is listed as “binds”.
